Experimental data from PubChem BioAssay AID493014 (National Center for Advancing Translational Sciences (NCATS), 2011).
Screen size: about 340,000 compounds; about 170 (0.05%) were called active. The inconclusive results got no clear call from the source; some entries with a clear call stand among them for comparison. Calls follow the shape of the dose curve; as a rule, active = well fitted inhibition curve with a large enough effect in the signal ratio, with a control signal flat (not every such curve was filed as active); inconclusive = small, poorly fitted or top-dose-only effect, or effect the other way, or a change in a side signal; inactive = flat fitted curve, though single readings scatter; the % refers to the signal ratio. Potencies beside an inconclusive call are fits to weak or partial responses and may not hold up.

Assay: qHTS Assay to Find Inhibitors of Chronic Active B-Cell Receptor Signaling;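 as to activity change, negative = inhibition: plate controls were basal doxycycline-induced cells for no effect and cells given 10 µM MG132 for full effect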
Settings: ABC-DLBCL IkBa-CBG/CBR reporter, luminescence ratio (green luciferase fused to IkBa over red control in TMD8 lymphoma cells), 4 h; activity change, negative = inhibition: at 46.1 µM (top of the series) unless noted
Outline: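 Concentration-response series (up to 46 uM) were applied to TMD8 dual-reporter cells for 4 h at 37C with doxycycline. Green/red ratio, after filter-overlap correction, defined %Activity; red signal alone was normalised to basal cells and zero luminescence.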
Potency is read from the fitted curve at half-maximal effect.

SMILES	activity change, negative = inhibition	Potency
O=C(NCC1CCCN1S(=O)(=O)c1cccs1)c1cccc(Cl)c1 (stereo unspecified)	inactive: -9.13%	
COc1ccc(C2/C=C\CN(C(=O)c3ccccc3)CC(=O)N2Cc2ccc(F)cc2)cc1 (stereo unspecified)	inactive: -0.761%	
NC(=O)c1ccsc1NC(=O)c1ccc(N2CCCC2=O)cc1		inconclusive: 12.6 µM [falling, partial curve]
CCNC(=S)N/N=C/c1sccc1C		inconclusive: 3.98 µM [falling, full curve]
Cc1ccc(C(=O)CSc2nc(O)cc(=O)[nH]2)cc1C	inactive: 4.58%	
CC1=NN(S(=O)(=O)c2ccc(C)cc2)C(=O)c2ccccc2O1	inconclusive: 5.05%	
Cc1ccc(NC(=O)CN2C(=O)NC(C)(CC(C)C)C2=O)c(Br)c1 (stereo unspecified)	inactive: 0.0825%	
Cn1cccc1CC(=O)NNC(=O)Nc1ccc(Cl)cc1	inconclusive: 4.46%	
CCc1nc(NC(C)C)c2oc3ccccc3c2n1	inconclusive: 0.41%	
COc1ccc(/C=N/NC(=O)c2ccoc2C)cc1CN1CCN(c2ccc(F)cc2)CC1		inconclusive: 22.4 µM [falling, single point]
CCCCCCCCCC(=O)Nc1cccnc1	inconclusive: -0.0233%	
O=C(NCc1ccc(F)cc1)c1ccc(CS(=O)(=O)c2ccc(Cl)cc2)o1	inactive: -0.987%	
COc1ccccc1NC(=O)Nc1ccc(CC#N)cc1		inconclusive: 35.5 µM [rising, partial curve]
Cn1ccnc1SCC(=O)c1cccc(Br)c1	inconclusive: 15.2%	
CC(=O)Nc1ccc2c(c1)C(=O)N(C1CCCCC1)C2=O	inconclusive: 5.35%	
Cc1ccc(C(=O)C(C)OC(=O)CNS(=O)(=O)c2ccc(C)cc2)cc1 (stereo unspecified)	inconclusive: 4.05%	
COc1ccc2c(c1)c(CC(=O)Nc1nnc(C3CC3)s1)c(C)n2C(=O)c1ccc(Cl)cc1	inactive: -1.91%	
Cc1cccc(/C=N/Nc2nncc3ccccc23)c1		inconclusive: 15.8 µM [falling, partial curve]
O=C(Cc1cc(=O)oc2cc(O)ccc12)NCC1CCC(C(=O)O)CC1 (stereo unspecified)	inconclusive: 9.43%	
Nc1ccc(-c2nc3ccccc3s2)cn1		inconclusive: 25.1 µM [falling, single point]
O=C(N/N=C/C(Br)=C/c1ccccc1)c1cccnc1	inconclusive: -1.96%	
CC1(C)Cc2c(sc3[nH]c(=S)[nH]c(=O)c23)CO1		inconclusive: 35.5 µM [falling, single point]

SMILES	activity change, negative = inhibition	Potency
Cc1ccc(C(=O)OCc2nnc(-c3ccccc3)o2)o1	inconclusive: 3.17%	
S=C(NN=C(C1CC1)C1CC1)Nc1ccccc1		inconclusive: 25.9 µM [falling, partial curve, poor fit]
O=C(NNC(=S)Nc1ccc(Cl)cc1)c1ccccc1		inconclusive: 35.5 µM [rising, single point]
O=C(Nc1ccccc1)OC1CCCCc2cccnc21 (stereo unspecified)	inconclusive: 8.33%	
Cc1cc(NC(=O)CSc2nc3cc(C)c(C)cc3cc2C)no1	inconclusive: 1.29%	
O=C(CN1CCN(Cc2ccccc2)CC1)c1ccc(Br)cc1		inconclusive: 35.5 µM [falling, single point]
CC(=O)Nc1ccc(Nc2nc(C)nc3c2oc2ccccc23)cc1	inconclusive: 14.3%	
N#CC(c1ccc(F)cc1)c1ccc(C(=O)c2ccccc2)cc1 (stereo unspecified)	inconclusive: 16.6%	
COc1ccc(C(=O)NNC(=O)c2cc3cccc(OC)c3oc2=O)cc1		inconclusive: 3.55 µM [falling, single point]
O=C(NCc1ccccn1)Nc1ccc(Cl)cc1Cl	inactive: 9.66%	
CN(CCCNC(=O)Cn1cccc1C(=O)c1ccccc1)C1CCCCC1		inconclusive: 1.26 µM [falling, partial curve, poor fit]
O=C(O)CSCNC(=O)C12CC3CC(CC(C3)C1)C2		inconclusive: 29.1 µM [falling, single point]
Cc1cc(Nc2cccc(Cl)c2)nc(-c2ccccc2O)n1	inconclusive: 10.4%	
CCc1ccc(C(C(=O)NC2CCCCC2)N(C(=O)c2csnn2)C2CC2)cc1 (stereo unspecified)	inconclusive: -13.7%	
Cc1ccc(/C=N/NC(=O)CNC(=O)c2cccs2)cc1	inactive: -2.39%	
Oc1ccc(C=Nc2ccc3ncccc3c2)c(O)c1		inconclusive: 11.2 µM [cytotoxic, partial curve]
NC(=O)c1cccc2c3c([nH]c12)CCCC3	inconclusive: 0.979%	
C[n+]1ccccc1/C=C/c1ccc2ncccc2c1	inactive: 4.95%	
O=C(O)c1cc(N/N=C/c2cccs2)ccc1Cl		inconclusive: 3.98 µM [falling, partial curve]
COc1ccc(NC(=O)CC2CCCCC2)cc1OC	inconclusive: -11.3%	
CCn1c(SCc2ccc(C(=O)Nc3nccs3)cc2)nnc1-c1ccc(NC(C)=O)cc1	inconclusive: 2.11%	
N#CC1(C#N)C2=C(CCCC2)NC(c2ccccc2)C1(C#N)C#N (stereo unspecified)	inconclusive: -2.35%	

SMILES	activity change, negative = inhibition	Potency
O=C(CCS(=O)(=O)Cc1ccc(Cl)cc1)NCCc1ccccc1		inconclusive: 12.6 µM [rising, partial curve, poor fit]
O=C(NC1CCCCC1)C(c1ccco1)N(CCc1ccccc1)C(=O)C(F)(F)F (stereo unspecified)	inconclusive: 9.76%	
Cc1cc(C(=O)CN2C(=O)C(=O)N(CC(C)C)C2=O)c(C)n1-c1ccccc1F	inconclusive: -10.8%	
NC1(C#Cc2ccc3c(=O)c4ccccc4sc3c2)CCCCC1	inconclusive: 5.35%	
O=C(COc1ccc(Cl)cc1)NCCC1=CCCCC1	inconclusive: 7.28%	
CCOC(=O)Oc1ccc2c(c1)C(C)=CC(C)(C)N2C(=O)OCC	inactive: 3.89%	
COc1ccc(C)cc1NC(=O)c1nnn(Cc2cccc(F)c2)c1N	inconclusive: 8.21%	
COc1cc(/C=N/NC(=O)c2ccc(=O)[nH]n2)ccc1O	inconclusive: -21%	
Cc1ccc(S(=O)(=O)CCCS(=O)(=O)c2ccc(C)cc2)cc1	inactive: 2.23%	
O=C(Cc1cccs1)Nc1cccc(-c2nc3ccccc3o2)c1		inconclusive: 0.398 µM [rising, full curve, poor fit]
COc1cc2c(cc1OC)[C@H](Cc1ccc(O)cc1)NCC2		inconclusive: 25.9 µM [falling, partial curve, poor fit]
c1ccc(OCc2nn3c(Cn4cnc5ccccc54)nnc3s2)cc1		inconclusive: 2.91 µM [rising, partial curve, poor fit]
Cc1c(NC(=O)c2cc(S(=O)(=O)N3CCCCC3)ccc2Cl)c(=O)n(-c2ccccc2)n1C	inconclusive: -0.0996%	
COc1ccc(N(CC(=O)N/N=C/c2ccc(-c3ccc([N+](=O)[O-])cc3)o2)S(=O)(=O)c2ccc(C)cc2)cc1	inactive: 1.99%	
O=c1[nH]c2cc3c(cc2cc1CN(Cc1cccnc1)C(=S)NCc1ccco1)OCCO3	inconclusive: -4.05%	
COc1ccccc1-c1nc(C(N)=O)c2[nH]c(=O)n(-c3cccc(C)c3)c2n1	inconclusive: -14.2%	
O=C(CCCOc1ccccc1)N1CCN(c2ccccc2)CC1	inactive: -20.1%	
OC(COc1ccc2cc(Br)ccc2c1)CN1CCOCC1 (stereo unspecified)	inactive: 10.8%	
O=C(O)c1ccc(N/N=C/c2ccnc3ccccc23)cc1	inconclusive: 168%	
COC(=O)c1cc(NS(=O)(=O)c2ccc3c(c2)CCC(=O)N3)cc(C(=O)OC)c1	inconclusive: 3.9%	
CCn1c(/C=C/c2ccccc2Cl)nc2ccccc2c1=O	inconclusive: -7.09%	
COc1cccc(OC)c1OCCN1CCN(C(c2ccccc2)c2ccccc2)CC1	inconclusive: -18.8%	

SMILES	activity change, negative = inhibition	Potency
CCN1CCN(CCOCCOc2ccccc2)CC1	inconclusive: 8.36%	
COc1cc(NC(=O)NCC2CCN(Cc3ccccc3Cl)CC2)cc(OC)c1OC	inactive: 5.93%	
CSc1ccccc1NC(=O)Nc1ccc(Cl)cc1		inconclusive: 4.61 µM [falling, partial curve]
CN(C)c1ccc(/C=C/c2nc3ccccc3s2)cc1	inconclusive: 312%	
COc1ccc(C(=O)Oc2ccc(C(C)=O)cc2)c(OC)c1	inconclusive: -2.42%	
O=C(c1cccc(F)c1)N1CCc2ccccc21	inconclusive: 19.2%	
CCc1cc(=O)oc2cc(OCC=C(C)C)ccc12	inconclusive: 4%	
O=C([O-])c1ccccc1-[n+]1c(-c2ccccc2)cc(-c2ccccc2)cc1-c1ccccc1	inconclusive: -0.93%	
COc1cc(/C=N/NC(=O)CNC(=O)c2ccco2)ccc1O	inactive: 6.63%	
COc1ccc(NC(=O)Cc2ccc(Cl)cc2)cc1NC(=O)c1ccco1	inactive: 7.63%	
CCOc1cc(/C=N/NC(=O)CN2CCOCC2)ccc1OCc1ccccc1	inactive: 2.27%	
CCc1ccc(CN2CCC(Oc3ccc(C(=O)N4CCCC4)cc3)CC2)cc1	inactive: -1.49%	
Brc1ccc(-c2csc(/N=C/N3CCOCC3)n2)cc1	inconclusive: 14.9%	
CCN(CC)C(=O)C1CCCN(c2ncnc3c2cnn3-c2cccc(C)c2)C1 (stereo unspecified)	inconclusive: -2.42%	
Cc1cccc(CC(C)NC(=O)c2oc3c(F)cccc3c2C)n1 (stereo unspecified)	inconclusive: -4.45%	
CC(C)C[C@@H](CO)N1CCN(Cc2ccc(O)cc2)CCC1=O	inconclusive: 11.1%	
CC1(C)C=Cc2c(c3c(c4c(=O)c(-c5ccc(O)cc5)coc24)OC(C)(C)CC3)O1		inconclusive: 12.6 µM [falling, partial curve, poor fit]
CCOc1ccc(S(=O)(=O)N2CCN=C2c2ccccc2)cc1	inactive: -5.85%	
Cc1ccc(C=Nc2ccccc2C(N)=O)o1	inactive: 3.31%	
Fc1ccc(-n2ncc3c(NCCCn4ccnc4)ncnc32)cc1	inconclusive: 22.1%	

Given as comma-separated lines: part of the list above
SMILES,"activity change, negative = inhibition",Potency
COc1cc(NC(=O)NCC2CCN(Cc3ccccc3Cl)CC2)cc(OC)c1OC,inactive: 5.93%,
CSc1ccccc1NC(=O)Nc1ccc(Cl)cc1,,"inconclusive: 4.61 µM [falling, partial curve]"
CN(C)c1ccc(/C=C/c2nc3ccccc3s2)cc1,inconclusive: 312%,
COc1ccc(C(=O)Oc2ccc(C(C)=O)cc2)c(OC)c1,inconclusive: -2.42%,
O=C(c1cccc(F)c1)N1CCc2ccccc21,inconclusive: 19.2%,
CCc1cc(=O)oc2cc(OCC=C(C)C)ccc12,inconclusive: 4%,
